Data on three compounds can be found in US9997714B2, “Hole transport material” (MERCK PATENT GMBH, priority 2013, dated 2018).

This series in a line: Current-voltage characteristics of solid state dye-sensitized solar cell with the HTM. The note with it: sDSSC, Z907 dye, AM 1.5 G; for FF / PCE / VOC: 100 mW cm^−2; for Jsc: 100 mW cm^−2, active area 0.16 cm^2.

On to `COc1ccc(N(c2ccc(OC)c(C)c2)c2ccc3c(c2)C2(c4cc(N(c5ccc(OC)c(C)c5)c5ccc(OC)c(C)c5)ccc4-3)c3cc(N(c4ccc(OC)c(C)c4)c4ccc(OC)c(C)c4)ccc3-c3ccc(N(c4ccc(OC)c(C)c4)c4ccc(OC)c(C)c4)cc32)cc1C` [Example 1, 2,2′,7,7′-tetrakis-(N,N′-di-4-methoxy-3-methylphenylamine)-9,9′-spirobifluorene], for which the FF is 0.669, the PCE is given as 1.43%, the VOC was determined as 0.787 V and the Jsc is given as 2.74 mA cm^−2.
For `COc1ccc(N(c2ccc(OC)cc2)c2ccc3c(c2)C2(c4cc(N(c5ccc(OC)cc5)c5ccc(OC)cc5)ccc4-3)c3cc(N(c4ccc(OC)cc4)c4ccc(OC)cc4)ccc3-c3ccc(N(c4ccc(OC)cc4)c4ccc(OC)cc4)cc32)cc1` [Example 2, 2,2′,7,7′-tetrakis-(N,N′-di-4-methoxyphenylamine)-9,9′-spirobifluorene], the FF was determined as 0.532, the PCE is 1.45%, the VOC amounted to 0.744 V and the Jsc is 3.67 mA cm^−2.
The like results for `COc1c(C)cc(N(c2cc(C)c(OC)c(C)c2)c2ccc3c(c2)C2(c4cc(N(c5cc(C)c(OC)c(C)c5)c5cc(C)c(OC)c(C)c5)ccc4-3)c3cc(N(c4cc(C)c(OC)c(C)c4)c4cc(C)c(OC)c(C)c4)ccc3-c3ccc(N(c4cc(C)c(OC)c(C)c4)c4cc(C)c(OC)c(C)c4)cc32)cc1C` [Example 3] were, in that order, 0.493, 0.69%, 0.734 V and 1.92 mA cm^−2.
